In the supplement of paper PMC11732987, “Enantioselective OTUD7B fragment discovery through chemoproteomics screening and high-throughput optimisation” (Communications Chemistry, 2025):
The list shows a part of the results. The data scatter; read single values as rough.

By UniProt entry, the sequences of proteins in these tests, tags left out. Where a name states a change or a piece, a line headed by the entry shows the natural chain unless it says otherwise. Residues count along the entry.
UniProt Q92508, 366-396: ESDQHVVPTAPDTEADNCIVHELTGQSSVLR
UniProt P53350, 365-392: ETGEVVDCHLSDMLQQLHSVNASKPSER
UniProt Q5JRX3: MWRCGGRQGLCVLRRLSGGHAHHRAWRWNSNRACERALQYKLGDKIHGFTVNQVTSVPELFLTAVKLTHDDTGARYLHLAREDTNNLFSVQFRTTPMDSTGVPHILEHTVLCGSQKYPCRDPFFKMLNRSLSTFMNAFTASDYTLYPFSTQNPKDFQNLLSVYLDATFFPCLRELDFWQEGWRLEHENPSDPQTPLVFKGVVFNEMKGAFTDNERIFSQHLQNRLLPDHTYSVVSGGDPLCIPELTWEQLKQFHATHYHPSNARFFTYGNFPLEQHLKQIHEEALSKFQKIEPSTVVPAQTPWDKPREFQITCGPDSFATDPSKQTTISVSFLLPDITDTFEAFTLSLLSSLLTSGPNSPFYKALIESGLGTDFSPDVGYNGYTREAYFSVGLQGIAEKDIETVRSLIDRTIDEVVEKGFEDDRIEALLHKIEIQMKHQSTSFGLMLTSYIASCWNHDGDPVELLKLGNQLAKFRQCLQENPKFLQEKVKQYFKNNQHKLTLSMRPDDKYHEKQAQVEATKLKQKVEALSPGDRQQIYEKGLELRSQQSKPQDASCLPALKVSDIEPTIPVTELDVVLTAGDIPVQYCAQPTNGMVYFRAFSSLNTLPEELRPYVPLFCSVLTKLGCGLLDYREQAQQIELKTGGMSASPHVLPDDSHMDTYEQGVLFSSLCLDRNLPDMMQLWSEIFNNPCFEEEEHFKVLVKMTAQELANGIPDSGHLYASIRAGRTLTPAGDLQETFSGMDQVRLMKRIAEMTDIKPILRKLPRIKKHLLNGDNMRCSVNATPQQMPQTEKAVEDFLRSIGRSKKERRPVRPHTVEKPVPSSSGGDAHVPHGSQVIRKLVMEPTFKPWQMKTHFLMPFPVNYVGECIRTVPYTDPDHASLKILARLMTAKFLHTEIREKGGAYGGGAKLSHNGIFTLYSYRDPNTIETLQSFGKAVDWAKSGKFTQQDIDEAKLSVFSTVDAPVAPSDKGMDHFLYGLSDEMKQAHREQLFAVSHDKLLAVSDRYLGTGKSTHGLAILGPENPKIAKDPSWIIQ
UniProt Q92576: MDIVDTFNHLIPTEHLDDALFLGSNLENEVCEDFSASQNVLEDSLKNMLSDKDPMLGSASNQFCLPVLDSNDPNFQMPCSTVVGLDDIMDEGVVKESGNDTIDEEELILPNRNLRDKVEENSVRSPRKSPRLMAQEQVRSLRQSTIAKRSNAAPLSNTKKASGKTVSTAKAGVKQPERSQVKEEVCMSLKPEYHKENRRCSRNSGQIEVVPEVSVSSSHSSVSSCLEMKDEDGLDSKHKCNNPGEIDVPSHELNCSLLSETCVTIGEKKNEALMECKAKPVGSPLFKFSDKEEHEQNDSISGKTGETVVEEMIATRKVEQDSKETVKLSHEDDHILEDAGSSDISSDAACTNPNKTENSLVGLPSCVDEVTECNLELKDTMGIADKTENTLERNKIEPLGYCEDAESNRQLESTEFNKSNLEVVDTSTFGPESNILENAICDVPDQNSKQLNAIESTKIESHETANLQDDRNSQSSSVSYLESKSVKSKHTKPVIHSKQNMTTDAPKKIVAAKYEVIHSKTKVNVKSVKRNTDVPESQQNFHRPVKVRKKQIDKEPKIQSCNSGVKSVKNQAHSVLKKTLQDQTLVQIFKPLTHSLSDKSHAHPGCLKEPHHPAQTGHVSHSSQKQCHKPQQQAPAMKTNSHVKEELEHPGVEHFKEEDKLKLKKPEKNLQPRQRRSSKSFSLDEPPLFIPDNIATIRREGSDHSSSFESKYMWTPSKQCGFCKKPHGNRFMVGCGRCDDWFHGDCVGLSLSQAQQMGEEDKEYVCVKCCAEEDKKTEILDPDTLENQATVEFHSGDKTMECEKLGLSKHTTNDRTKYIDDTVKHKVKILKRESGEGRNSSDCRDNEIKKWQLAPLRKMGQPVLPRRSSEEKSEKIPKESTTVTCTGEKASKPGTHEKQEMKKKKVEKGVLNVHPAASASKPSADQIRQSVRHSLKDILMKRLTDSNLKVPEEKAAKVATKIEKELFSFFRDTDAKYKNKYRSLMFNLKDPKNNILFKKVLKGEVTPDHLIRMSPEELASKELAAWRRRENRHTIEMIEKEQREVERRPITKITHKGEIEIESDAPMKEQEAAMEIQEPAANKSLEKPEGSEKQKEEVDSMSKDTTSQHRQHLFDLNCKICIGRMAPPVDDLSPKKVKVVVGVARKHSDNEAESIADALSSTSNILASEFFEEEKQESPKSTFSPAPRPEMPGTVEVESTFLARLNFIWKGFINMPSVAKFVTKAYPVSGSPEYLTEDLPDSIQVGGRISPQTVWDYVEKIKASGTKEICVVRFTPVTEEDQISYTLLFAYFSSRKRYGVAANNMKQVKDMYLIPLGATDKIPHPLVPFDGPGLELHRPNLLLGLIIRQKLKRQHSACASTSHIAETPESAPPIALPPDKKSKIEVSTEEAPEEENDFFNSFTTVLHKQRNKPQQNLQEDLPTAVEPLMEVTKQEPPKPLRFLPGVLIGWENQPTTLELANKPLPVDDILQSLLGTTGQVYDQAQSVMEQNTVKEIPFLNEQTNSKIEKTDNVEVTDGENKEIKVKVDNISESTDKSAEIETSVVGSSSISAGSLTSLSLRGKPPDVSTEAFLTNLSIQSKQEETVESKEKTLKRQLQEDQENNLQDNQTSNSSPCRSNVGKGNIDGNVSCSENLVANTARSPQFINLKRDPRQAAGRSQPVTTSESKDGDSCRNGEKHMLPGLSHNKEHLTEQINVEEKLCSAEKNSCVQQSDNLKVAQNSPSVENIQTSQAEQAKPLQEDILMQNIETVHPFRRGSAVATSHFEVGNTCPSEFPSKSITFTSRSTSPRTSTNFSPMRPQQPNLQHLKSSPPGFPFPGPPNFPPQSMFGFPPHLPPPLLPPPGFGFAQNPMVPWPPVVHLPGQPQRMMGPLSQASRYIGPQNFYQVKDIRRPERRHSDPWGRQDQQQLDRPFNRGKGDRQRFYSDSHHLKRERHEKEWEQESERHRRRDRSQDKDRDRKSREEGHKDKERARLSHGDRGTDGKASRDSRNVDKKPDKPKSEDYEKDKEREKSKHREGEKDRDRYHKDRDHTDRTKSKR
UniProt Q9BSJ6, 28-48: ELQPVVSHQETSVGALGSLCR
UniProt O75417: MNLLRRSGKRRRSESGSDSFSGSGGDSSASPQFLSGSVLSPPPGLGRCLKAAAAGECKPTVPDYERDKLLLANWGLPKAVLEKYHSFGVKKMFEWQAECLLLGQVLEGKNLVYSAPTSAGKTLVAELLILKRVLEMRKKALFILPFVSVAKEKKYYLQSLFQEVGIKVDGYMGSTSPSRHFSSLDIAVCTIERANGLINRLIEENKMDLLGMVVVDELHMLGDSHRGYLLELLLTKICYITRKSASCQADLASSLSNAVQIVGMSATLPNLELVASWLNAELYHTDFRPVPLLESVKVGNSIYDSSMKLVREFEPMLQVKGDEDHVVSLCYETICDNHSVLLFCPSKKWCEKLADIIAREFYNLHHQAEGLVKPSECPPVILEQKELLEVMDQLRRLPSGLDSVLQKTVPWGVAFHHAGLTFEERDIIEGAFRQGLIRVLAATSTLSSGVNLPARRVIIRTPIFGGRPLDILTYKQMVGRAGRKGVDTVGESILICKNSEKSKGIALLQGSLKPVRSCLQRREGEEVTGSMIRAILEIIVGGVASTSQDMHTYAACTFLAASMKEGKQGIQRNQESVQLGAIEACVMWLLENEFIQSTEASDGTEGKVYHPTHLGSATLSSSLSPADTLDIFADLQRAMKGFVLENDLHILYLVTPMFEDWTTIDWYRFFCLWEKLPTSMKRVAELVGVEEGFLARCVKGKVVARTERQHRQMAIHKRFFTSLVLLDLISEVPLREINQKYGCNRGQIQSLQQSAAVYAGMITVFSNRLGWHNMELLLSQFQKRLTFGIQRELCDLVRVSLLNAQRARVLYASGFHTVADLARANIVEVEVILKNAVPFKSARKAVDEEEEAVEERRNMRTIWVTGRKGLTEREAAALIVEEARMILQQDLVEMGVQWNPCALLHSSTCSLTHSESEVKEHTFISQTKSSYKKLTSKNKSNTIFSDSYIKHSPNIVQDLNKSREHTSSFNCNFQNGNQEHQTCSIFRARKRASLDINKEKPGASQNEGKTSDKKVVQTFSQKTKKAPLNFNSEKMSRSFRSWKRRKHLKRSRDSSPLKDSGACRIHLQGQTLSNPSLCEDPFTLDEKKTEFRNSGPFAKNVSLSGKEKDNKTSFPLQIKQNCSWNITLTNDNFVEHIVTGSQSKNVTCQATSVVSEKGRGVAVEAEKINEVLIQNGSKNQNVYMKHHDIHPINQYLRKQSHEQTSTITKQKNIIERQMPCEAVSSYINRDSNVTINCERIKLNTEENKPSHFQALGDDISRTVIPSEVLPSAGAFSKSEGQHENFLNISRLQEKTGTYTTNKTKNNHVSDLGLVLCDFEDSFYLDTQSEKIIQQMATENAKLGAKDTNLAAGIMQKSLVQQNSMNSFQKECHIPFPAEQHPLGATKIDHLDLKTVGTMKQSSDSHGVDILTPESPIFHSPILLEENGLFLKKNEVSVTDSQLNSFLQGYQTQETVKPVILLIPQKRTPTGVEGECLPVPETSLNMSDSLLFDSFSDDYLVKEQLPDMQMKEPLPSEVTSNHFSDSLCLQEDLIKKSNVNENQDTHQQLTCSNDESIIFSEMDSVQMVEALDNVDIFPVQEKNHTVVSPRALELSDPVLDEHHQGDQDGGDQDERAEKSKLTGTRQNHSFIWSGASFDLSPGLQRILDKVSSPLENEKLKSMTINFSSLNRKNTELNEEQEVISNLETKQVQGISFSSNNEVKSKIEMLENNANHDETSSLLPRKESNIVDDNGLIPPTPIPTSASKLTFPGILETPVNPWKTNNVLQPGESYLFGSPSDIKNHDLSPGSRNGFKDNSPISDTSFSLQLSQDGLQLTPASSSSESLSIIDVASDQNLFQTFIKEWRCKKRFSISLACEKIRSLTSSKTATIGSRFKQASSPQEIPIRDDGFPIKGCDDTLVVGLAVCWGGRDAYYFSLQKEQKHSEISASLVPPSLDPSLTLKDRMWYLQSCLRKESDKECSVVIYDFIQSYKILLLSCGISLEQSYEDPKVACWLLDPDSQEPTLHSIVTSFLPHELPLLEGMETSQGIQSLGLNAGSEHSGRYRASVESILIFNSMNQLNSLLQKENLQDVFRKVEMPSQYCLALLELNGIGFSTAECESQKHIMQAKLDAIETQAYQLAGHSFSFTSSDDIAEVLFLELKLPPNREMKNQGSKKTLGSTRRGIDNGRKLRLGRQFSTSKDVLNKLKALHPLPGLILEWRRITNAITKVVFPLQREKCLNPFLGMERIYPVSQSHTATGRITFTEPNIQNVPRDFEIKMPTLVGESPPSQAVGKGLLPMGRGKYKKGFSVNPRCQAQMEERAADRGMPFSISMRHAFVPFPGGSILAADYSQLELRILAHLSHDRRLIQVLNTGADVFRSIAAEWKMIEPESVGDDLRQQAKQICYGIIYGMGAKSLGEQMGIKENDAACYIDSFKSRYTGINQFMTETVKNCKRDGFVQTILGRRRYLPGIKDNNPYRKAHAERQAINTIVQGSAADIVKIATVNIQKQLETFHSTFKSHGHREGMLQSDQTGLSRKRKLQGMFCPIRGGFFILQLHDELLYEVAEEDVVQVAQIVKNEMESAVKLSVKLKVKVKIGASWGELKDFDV
UniProt Q9BTU6: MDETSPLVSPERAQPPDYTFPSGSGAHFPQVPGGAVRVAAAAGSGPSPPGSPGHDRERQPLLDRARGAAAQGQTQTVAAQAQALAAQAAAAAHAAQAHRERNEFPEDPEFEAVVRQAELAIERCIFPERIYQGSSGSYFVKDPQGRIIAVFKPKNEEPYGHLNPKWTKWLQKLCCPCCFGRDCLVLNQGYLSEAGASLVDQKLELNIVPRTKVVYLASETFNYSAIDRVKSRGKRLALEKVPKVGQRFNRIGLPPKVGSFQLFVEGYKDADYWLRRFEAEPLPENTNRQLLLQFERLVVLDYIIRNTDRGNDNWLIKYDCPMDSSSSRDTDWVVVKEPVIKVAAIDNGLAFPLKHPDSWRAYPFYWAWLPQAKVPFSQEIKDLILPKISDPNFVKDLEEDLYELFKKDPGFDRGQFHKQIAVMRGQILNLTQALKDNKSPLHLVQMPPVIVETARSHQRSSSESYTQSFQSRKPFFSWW
UniProt O94903: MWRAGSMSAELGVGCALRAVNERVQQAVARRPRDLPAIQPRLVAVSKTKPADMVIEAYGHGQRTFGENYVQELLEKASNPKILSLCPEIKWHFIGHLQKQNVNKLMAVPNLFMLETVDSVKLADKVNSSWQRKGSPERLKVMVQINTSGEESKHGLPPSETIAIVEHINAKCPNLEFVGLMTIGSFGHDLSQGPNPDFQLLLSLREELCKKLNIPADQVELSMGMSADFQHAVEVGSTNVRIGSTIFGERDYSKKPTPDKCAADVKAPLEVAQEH

compound: ClCC(=O)N[C@@H]1CCCc2ccccc12; test: log2 mean competition ratio of IA-DTB cysteine labelling (DMSO/compound) (log2 ratio); higher = stronger cysteine engagement by compound; conditions: 50 µM; treatment time: 4 h; cell line lysate: HEK293T
Experimental: (§1)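 IA-DTB competitive cysteine chemoproteomics in HEK293T RIPA lysate. Lysates were treated with compound 29 or 30 at 50 or 200 µM for 4 h, then IA-DTB (500 µM, 1 h), trypsin-digested, NeutrAvidin-enriched and analysed by diaPASEF. Competition ratio = intensity DMSO / intensity compound (n=4 treated, n=64 DMSO); binding: mean log2 CR ≥ 1 and p ≤ 0.05 plus QC filters. Target is the cysteine site.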

Target | log2 mean competition ratio
PIAS2 C441 (UniProt O75928) | -0.0469
PLS3 C167 | 0.11
PM20D2 C303 (UniProt Q8IYS1) | -0.0479
PIEZO1 C383 (UniProt Q92508) | -0.0552
PJA1 C241 | 0.0442
PHKG2 C176 (UniProt P15735) | 0.216
PHRF1 C710 (UniProt Q9P1Y6) | -0.0336
POLG C1130 | -0.309
PIK3CD C90 (UniProt O00329) | -0.196
PLAT C419 | -0.127
PLK1 C372 (UniProt P53350) | 0.147
PMPCB C485 (UniProt O75439) | 0.0817
PLCG2 C791 (UniProt P16885) | -0.115
POLR1F C193 | 0.0762
PITHD1 C187 (UniProt Q9GZP4) | 0.163
PIK3C2A C317 (UniProt O00443) | -0.0582
PHLDB1 C13 (UniProt Q86UU1) | 0.494
PHF23 C381 (UniProt Q9BUL5) | -0.234
PLEKHH2 C257 (UniProt E5RGK1) | 0.18

Target | log2 mean competition ratio
PITRM1 C556 (UniProt Q5JRX3) | -0.0939
PKNOX1 C109 (UniProt P55347) | -0.307
PIK3CD C366 (UniProt O00329) | -0.064
PHF3 C1631 (UniProt Q92576) | -0.234
PITX2 C152 | -0.0421
POLR1A C582 (UniProt O95602) | 0.262
PLEKHF2 C129 (UniProt Q9H8W4) | 0.0582
PIMREG C104 (UniProt Q9BSJ6) | -0.021
PHKA1 C844 (UniProt P46020) | -0.377
POGZ C1230 (UniProt Q7Z3K3) | 0.289
PIMREG C47 (UniProt Q9BSJ6) | -0.165
POLQ C1237 (UniProt O75417) | -0.234
PI4K2A C320 (UniProt Q9BTU6) | 0.347
PLPBP C15 (UniProt O94903) | 0.24
PLD6 C226 (UniProt Q8N2A8) | -0.304
PIK3CA C862 (UniProt P42336) | -0.262
PML C189 (UniProt P29590) | -0.156
POLA1 C514 (UniProt P09884) | 0.2

same assay, conditions: 200 µM; treatment time: 4 h; cell line lysate: HEK293T

Target | log2 mean competition ratio
PIAS2 C441 (UniProt O75928) | 0.108
PLS3 C167 | 0.184
PM20D2 C303 (UniProt Q8IYS1) | 0.0997
PIEZO1 C383 (UniProt Q92508) | 0.156
PJA1 C241 | 0.233
PHKG2 C176 (UniProt P15735) | 0.392
PHRF1 C710 (UniProt Q9P1Y6) | 0.257
POLG C1130 | 0.535
PIK3CD C90 (UniProt O00329) | -0.491
PLAT C419 | 0.314
PLK1 C372 (UniProt P53350) | 0.37
PMPCB C485 (UniProt O75439) | 0.0679
PLCG2 C791 (UniProt P16885) | 0.128
POLR1F C193 | -0.361
PITHD1 C187 (UniProt Q9GZP4) | 0.116
PIK3C2A C317 (UniProt O00443) | -0.101
PHLDB1 C13 (UniProt Q86UU1) | -0.194
PHF23 C381 (UniProt Q9BUL5) | -0.186
PLEKHH2 C257 (UniProt E5RGK1) | 0.00576

Target | log2 mean competition ratio
PITRM1 C556 (UniProt Q5JRX3) | 0.116
PKNOX1 C109 (UniProt P55347) | 0.0643
PIK3CD C366 (UniProt O00329) | -0.0495
PHF3 C1631 (UniProt Q92576) | -0.0079
PITX2 C152 | 0.282
POLR1A C582 (UniProt O95602) | -0.00898
PLEKHF2 C129 (UniProt Q9H8W4) | -0.235
PIMREG C104 (UniProt Q9BSJ6) | -0.149
PHKA1 C844 (UniProt P46020) | 0.0662
POGZ C1230 (UniProt Q7Z3K3) | 0.137
PIMREG C47 (UniProt Q9BSJ6) | -0.362
POLQ C1237 (UniProt O75417) | -0.115
PI4K2A C320 (UniProt Q9BTU6) | -0.133
PLPBP C15 (UniProt O94903) | 0.349
PLD6 C226 (UniProt Q8N2A8) | -0.233
PIK3CA C862 (UniProt P42336) | -0.0174
PML C189 (UniProt P29590) | -0.0378
POLA1 C514 (UniProt P09884) | 0.445

compound: ClCC(=O)N[C@H]1CCCc2ccccc12; test: as above; conditions: 50 µM; treatment time: 4 h; cell line lysate: HEK293T
Experimental: as §1

Target | log2 mean competition ratio
PIAS2 C441 (UniProt O75928) | -0.0157
PLS3 C167 | 0.208
PM20D2 C303 (UniProt Q8IYS1) | -0.221
PIEZO1 C383 (UniProt Q92508) | -0.566
PJA1 C241 | 0.065
PHKG2 C176 (UniProt P15735) | -0.21
PHRF1 C710 (UniProt Q9P1Y6) | 0.114
POLG C1130 | -0.186
PIK3CD C90 (UniProt O00329) | -0.00896
PLAT C419 | -0.0271
PLK1 C372 (UniProt P53350) | 0.0523
PMPCB C485 (UniProt O75439) | -0.0359
PLCG2 C791 (UniProt P16885) | -0.0145
POLR1F C193 | -0.0665
PITHD1 C187 (UniProt Q9GZP4) | -0.139
PIK3C2A C317 (UniProt O00443) | 0.141
PHLDB1 C13 (UniProt Q86UU1) | -0.279
PHF23 C381 (UniProt Q9BUL5) | -0.189
PLEKHH2 C257 (UniProt E5RGK1) | -0.107

Target | log2 mean competition ratio
PITRM1 C556 (UniProt Q5JRX3) | -0.275
PKNOX1 C109 (UniProt P55347) | 0.0736
PIK3CD C366 (UniProt O00329) | -0.176
PHF3 C1631 (UniProt Q92576) | 0.203
PITX2 C152 | 0.0931
POLR1A C582 (UniProt O95602) | 0.306
PLEKHF2 C129 (UniProt Q9H8W4) | -0.278
PIMREG C104 (UniProt Q9BSJ6) | -0.116
PHKA1 C844 (UniProt P46020) | -0.812
POGZ C1230 (UniProt Q7Z3K3) | 0.819
PIMREG C47 (UniProt Q9BSJ6) | -0.36
POLQ C1237 (UniProt O75417) | -0.131
PI4K2A C320 (UniProt Q9BTU6) | 0.443
PLPBP C15 (UniProt O94903) | 0.00619
PLD6 C226 (UniProt Q8N2A8) | 0.588
PIK3CA C862 (UniProt P42336) | -0.141
PML C189 (UniProt P29590) | -0.389
POLA1 C514 (UniProt P09884) | 0.133
